Source: paper PMC11094951
No constants are given. Whether binding was seen depends on the method and setting. In cells and extracts the contact can be indirect. Some results given as binding are weak or reduced against the parent protein; the word gives no strength.

Protein sequences, listed by entry. Tags and fused reporters are not part of them.
UniProt P40227: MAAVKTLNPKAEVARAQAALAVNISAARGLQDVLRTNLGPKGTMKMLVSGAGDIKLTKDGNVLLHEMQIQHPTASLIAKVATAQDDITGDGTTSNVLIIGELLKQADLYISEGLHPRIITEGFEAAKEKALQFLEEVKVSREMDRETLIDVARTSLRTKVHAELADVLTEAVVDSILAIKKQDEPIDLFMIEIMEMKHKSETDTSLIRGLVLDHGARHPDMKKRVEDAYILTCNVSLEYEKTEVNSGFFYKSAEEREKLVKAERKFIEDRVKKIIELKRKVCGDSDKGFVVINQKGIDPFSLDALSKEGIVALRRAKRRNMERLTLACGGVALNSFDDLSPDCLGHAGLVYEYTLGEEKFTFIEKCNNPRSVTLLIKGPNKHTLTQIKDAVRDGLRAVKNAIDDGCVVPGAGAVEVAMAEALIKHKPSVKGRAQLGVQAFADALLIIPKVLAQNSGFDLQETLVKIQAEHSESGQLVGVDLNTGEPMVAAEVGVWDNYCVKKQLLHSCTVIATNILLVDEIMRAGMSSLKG
UniProt P42224: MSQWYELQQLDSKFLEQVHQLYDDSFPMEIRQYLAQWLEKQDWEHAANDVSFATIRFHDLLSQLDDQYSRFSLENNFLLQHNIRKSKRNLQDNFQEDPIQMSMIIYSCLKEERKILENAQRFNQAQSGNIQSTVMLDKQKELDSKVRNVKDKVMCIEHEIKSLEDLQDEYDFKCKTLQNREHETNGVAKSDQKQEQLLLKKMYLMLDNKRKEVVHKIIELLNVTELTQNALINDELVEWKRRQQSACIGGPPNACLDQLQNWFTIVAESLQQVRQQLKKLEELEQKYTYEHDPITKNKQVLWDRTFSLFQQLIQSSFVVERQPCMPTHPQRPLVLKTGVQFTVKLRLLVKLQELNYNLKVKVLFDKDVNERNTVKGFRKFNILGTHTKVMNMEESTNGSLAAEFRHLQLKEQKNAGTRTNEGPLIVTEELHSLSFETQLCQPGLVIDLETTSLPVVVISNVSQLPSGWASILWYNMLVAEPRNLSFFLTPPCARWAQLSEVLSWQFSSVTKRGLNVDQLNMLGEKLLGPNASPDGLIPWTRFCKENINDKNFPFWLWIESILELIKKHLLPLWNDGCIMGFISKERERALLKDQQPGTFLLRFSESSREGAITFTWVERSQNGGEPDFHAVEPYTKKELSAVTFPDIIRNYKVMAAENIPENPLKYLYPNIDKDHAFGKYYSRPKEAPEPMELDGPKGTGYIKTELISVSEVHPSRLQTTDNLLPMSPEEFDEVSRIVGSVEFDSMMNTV

Target: Chaperonin Containing TCP1 Subunit 6 A (CCT6A) (human (endogenous in A549/PC9)) (UniProt P40227)
Experiment: co-IP; A549/PC9 lysates in RIPA buffer, incubated overnight with primary antibody (anti-CCT6A or anti-STAT1) or IgG and Protein A/G PLUS-Agarose; beads washed with PBS; detected by Western blot

Molecule	binding
STAT1 (Signal Transducer and Activator of Transcription 1) (from UniProt P42224 1-750)	binds
Hexokinase 2 (HK2) (enzyme, UniProt P52789 1-917) MIASHLLAYFFTELNHDQVQKVDQYLYHMRLSDETLLEISKRFRKEMEKGLGATTHPTAAVKMLPTFVRSTPDGTEHGEFLALDLGGTNFRVLWVKVTDNGLQKVEMENQIYAIPEDIMRGSGTQLFDHIAECLANFMDKLQIKDKKLPLGFTFSFPCHQTKLDESFLVSWTKGFKSSGVEGRDVVALIRKAIQRRGDFDIDIVAVVNDTVGTMMTCGYDDHNCEIGLIVGTGSNACYMEEMRHIDMVEGDEGRMCINMEWGAFGDDGSLNDIRTEFDQEIDMGSLNPGKQLFEKMISGMYMGELVRLILVKMAKEELLFGGKLSPELLNTGRFETKDISDIEGEKDGIRKAREVLMRLGLDPTQEDCVATHRICQIVSTRSASLCAATLAAVLQRIKENKGEERLRSTIGVDGSVYKKHPHFAKRLHKTVRRLVPGCDVRFLRSEDGSGKGAAMVTAVAYRLADQHRARQKTLEHLQLSHDQLLEVKRRMKVEMERGLSKETHASAPVKMLPTYVCATPDGTEKGDFLALDLGGTNFRVLLVRVRNGKWGGVEMHNKIYAIPQEVMHGTGDELFDHIVQCIADFLEYMGMKGVSLPLGFTFSFPCQQNSLDESILLKWTKGFKASGCEGEDVVTLLKEAIHRREEFDLDVVAVVNDTVGTMMTCGFEDPHCEVGLIVGTGSNACYMEEMRNVELVEGEEGRMCVNMEWGAFGDNGCLDDFRTEFDVAVDELSLNPGKQRFEKMISGMYLGEIVRNILIDFTKRGLLFRGRISERLKTRGIFETKFLSQIESDCLALLQVRAILQHLGLESTCDDSIIVKEVCTVVARRAAQLCGAGMAAVVDRIRENRGLDALKVTVGVDGTLYKLHPHFAKVMHETVKDLAPKCDVSFLQSEDGSGKGAALITAVACRIREAGQR	no binding
